Measured values published in the supplement of paper PMC10849652.
The list shows a part of the results.

Protein sequences, listed by entry. Tags and fused reporters are not part of them. Lines headed by an entry give the natural chain unless they say otherwise; changes in a name come on top.
UniProt Q92733: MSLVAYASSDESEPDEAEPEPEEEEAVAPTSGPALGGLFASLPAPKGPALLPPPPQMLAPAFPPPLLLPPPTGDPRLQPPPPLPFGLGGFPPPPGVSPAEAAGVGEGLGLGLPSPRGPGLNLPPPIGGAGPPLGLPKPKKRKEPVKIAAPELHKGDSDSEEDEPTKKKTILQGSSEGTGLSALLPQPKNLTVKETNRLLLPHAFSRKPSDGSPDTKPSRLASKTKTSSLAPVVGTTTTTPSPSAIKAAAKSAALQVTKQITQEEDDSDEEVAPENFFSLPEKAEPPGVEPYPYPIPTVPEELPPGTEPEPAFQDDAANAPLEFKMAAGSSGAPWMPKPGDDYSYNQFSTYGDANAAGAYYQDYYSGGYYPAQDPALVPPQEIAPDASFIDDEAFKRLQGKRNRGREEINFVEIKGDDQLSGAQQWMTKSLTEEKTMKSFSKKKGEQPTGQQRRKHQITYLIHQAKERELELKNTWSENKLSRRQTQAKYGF
UniProt P30048: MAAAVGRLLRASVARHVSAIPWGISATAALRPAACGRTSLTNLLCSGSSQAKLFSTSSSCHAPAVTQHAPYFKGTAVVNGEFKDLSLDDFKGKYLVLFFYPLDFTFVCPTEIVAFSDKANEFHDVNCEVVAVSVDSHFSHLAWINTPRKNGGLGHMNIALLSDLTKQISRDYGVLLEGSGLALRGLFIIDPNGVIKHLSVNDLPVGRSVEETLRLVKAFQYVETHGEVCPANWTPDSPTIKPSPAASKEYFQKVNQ
UniProt Q9BZL6: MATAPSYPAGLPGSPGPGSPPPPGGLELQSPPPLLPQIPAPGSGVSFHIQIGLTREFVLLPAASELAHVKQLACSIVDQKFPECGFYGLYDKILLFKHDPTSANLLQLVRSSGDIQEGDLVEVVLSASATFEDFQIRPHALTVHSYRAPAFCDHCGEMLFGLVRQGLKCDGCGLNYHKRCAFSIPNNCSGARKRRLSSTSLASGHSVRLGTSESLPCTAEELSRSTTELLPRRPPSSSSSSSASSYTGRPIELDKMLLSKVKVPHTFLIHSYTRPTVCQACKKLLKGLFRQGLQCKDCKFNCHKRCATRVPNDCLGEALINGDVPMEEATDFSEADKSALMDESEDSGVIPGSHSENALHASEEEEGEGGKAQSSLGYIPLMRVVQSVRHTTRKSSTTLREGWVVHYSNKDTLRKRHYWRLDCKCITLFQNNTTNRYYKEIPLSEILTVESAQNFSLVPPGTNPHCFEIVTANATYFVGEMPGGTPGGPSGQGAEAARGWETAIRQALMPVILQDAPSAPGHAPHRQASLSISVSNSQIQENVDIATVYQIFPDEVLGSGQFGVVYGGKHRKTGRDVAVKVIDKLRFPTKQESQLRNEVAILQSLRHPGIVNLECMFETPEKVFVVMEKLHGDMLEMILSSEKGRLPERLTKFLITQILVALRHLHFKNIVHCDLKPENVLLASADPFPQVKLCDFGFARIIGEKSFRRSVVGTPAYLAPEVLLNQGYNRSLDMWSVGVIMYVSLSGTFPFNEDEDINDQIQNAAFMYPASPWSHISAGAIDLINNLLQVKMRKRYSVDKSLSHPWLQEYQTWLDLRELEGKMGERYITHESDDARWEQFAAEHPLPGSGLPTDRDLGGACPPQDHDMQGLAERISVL
UniProt Q9NY27: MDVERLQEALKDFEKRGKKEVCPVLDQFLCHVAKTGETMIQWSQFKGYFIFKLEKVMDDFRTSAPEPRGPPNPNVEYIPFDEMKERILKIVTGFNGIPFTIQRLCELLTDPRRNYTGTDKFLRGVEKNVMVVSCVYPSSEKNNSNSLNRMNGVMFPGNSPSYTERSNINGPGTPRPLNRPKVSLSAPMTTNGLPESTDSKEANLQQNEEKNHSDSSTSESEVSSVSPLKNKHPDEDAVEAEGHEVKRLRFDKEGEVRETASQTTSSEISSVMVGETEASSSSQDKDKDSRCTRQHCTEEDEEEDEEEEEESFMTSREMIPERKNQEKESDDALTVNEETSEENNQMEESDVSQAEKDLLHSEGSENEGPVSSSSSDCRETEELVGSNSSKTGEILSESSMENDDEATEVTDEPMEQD
UniProt Q13162: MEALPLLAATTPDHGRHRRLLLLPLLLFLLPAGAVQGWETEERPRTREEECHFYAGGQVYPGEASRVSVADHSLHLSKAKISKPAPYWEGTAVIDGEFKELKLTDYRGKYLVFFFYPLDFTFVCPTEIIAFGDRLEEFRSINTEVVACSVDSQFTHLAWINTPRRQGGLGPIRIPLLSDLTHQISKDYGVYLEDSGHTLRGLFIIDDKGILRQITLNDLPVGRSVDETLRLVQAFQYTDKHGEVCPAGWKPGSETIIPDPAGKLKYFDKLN
UniProt Q4J6C6, whole entry, looked up: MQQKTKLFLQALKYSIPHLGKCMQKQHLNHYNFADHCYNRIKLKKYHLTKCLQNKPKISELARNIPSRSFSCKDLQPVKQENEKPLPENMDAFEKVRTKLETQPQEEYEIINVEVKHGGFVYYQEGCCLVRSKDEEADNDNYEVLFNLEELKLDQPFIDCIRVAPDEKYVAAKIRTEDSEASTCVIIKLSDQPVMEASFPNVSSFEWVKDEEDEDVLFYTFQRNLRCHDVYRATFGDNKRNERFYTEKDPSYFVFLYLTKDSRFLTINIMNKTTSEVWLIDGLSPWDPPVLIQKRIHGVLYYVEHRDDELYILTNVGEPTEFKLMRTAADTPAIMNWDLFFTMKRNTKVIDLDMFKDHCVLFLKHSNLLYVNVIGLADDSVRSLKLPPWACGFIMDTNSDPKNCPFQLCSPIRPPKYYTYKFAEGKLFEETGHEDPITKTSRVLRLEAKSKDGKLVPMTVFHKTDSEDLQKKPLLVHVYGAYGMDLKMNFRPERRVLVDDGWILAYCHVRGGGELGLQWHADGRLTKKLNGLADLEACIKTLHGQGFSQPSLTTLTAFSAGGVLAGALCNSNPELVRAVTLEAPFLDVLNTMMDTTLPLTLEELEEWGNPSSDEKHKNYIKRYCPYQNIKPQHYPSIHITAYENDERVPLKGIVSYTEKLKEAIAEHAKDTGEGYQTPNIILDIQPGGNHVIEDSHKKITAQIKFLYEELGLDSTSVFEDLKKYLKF
UniProt Q9Y520: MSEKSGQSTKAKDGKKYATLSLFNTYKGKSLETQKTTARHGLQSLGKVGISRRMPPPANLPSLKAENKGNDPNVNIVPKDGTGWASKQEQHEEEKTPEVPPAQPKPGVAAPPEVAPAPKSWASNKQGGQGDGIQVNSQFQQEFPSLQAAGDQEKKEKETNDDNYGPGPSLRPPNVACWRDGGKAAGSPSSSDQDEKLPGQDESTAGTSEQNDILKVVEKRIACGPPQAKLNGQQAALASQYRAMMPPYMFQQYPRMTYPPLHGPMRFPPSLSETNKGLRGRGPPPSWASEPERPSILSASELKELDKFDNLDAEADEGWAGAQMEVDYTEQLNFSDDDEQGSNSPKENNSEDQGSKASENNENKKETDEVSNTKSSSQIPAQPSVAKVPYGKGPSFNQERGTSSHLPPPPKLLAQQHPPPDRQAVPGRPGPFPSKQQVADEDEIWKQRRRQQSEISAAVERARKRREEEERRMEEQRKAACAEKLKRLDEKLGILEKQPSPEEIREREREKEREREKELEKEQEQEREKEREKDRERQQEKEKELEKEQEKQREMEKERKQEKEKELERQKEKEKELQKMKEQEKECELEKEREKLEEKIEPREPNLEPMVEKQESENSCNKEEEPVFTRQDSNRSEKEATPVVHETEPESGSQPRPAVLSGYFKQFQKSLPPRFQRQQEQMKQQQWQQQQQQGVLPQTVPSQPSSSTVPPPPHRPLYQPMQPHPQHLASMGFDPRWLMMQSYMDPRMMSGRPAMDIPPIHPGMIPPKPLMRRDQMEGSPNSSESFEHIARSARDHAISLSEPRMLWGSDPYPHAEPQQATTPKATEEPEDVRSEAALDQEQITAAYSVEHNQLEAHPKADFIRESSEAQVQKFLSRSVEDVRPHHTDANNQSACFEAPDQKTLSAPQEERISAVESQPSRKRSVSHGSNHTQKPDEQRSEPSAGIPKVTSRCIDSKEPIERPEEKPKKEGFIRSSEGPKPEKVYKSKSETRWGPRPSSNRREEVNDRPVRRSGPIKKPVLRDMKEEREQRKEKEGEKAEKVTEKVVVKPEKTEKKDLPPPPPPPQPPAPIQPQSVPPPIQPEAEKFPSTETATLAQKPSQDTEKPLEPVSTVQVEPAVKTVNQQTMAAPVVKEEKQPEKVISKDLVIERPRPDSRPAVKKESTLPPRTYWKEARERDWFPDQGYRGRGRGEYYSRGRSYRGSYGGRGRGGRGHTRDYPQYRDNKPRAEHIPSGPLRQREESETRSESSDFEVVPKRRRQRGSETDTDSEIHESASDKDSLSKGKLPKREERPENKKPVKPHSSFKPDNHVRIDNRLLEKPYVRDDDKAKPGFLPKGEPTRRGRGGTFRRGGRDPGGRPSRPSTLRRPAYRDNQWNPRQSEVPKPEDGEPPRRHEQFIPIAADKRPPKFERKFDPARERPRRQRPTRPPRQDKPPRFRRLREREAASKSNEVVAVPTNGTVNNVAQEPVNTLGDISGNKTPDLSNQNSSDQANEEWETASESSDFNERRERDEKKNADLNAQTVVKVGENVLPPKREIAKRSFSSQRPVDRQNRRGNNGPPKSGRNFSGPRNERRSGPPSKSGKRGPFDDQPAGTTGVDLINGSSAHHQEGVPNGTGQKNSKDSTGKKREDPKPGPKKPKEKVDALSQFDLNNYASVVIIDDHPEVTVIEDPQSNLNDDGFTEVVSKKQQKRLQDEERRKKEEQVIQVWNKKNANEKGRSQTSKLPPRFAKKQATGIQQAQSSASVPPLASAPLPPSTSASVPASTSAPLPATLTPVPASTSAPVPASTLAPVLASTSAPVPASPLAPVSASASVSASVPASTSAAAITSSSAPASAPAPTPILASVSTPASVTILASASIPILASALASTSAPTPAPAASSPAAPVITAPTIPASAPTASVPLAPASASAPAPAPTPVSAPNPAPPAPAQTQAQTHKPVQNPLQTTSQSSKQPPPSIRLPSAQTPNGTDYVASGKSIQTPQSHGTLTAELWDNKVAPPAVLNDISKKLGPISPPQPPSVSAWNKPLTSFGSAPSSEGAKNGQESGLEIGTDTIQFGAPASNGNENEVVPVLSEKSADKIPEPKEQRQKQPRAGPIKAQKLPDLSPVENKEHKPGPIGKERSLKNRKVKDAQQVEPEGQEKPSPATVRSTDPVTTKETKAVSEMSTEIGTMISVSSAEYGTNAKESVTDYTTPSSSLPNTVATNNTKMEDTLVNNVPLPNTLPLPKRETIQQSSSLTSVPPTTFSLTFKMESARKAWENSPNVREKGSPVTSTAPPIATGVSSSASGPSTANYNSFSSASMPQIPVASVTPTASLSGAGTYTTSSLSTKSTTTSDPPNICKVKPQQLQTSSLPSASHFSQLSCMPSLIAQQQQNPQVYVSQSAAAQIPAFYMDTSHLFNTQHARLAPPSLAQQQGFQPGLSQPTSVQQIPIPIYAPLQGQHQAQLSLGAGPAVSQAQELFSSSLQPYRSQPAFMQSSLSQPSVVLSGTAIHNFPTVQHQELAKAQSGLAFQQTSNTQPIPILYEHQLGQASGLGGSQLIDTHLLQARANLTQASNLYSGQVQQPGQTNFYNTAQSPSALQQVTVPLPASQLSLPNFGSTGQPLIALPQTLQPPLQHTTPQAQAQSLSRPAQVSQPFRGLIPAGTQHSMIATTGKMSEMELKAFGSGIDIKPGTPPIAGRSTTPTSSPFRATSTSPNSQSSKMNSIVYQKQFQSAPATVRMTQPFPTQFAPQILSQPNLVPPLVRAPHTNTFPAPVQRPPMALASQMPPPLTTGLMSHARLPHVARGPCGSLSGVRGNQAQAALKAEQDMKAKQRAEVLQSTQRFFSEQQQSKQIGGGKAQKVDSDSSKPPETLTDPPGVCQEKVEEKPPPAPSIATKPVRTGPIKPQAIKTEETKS
UniProt Q86WR7: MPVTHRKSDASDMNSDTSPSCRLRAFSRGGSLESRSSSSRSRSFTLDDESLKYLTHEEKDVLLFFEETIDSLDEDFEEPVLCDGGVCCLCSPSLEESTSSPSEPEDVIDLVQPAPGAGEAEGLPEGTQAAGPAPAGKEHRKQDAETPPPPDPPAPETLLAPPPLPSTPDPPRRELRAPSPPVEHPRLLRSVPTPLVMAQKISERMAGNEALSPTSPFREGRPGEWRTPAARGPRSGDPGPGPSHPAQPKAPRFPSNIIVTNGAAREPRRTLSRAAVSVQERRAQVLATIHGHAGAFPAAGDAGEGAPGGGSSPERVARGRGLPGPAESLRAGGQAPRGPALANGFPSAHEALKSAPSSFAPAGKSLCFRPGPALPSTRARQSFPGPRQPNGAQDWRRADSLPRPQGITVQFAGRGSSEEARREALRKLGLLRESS

What was measured:
Experiment in all cases: log2 fold change, soluble protein after heating vs DMSO (PISA); higher = thermal stabilisation; K562 cells, 10 uM, 30 min; active = over 0.2 and 3.5 SD of the protein, either way, in both replicates (recomputed)
[1] = compound: COC1=CC=C(C=C1)CN2C=CC3=C2C=C(C=C3)C(=O)NO
How it was run: (§1)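 Thermal stability values are relative to control samples and come from duplicates. They are expressed as log2 fold changes. For measurement, K562 cells (2×10^6 cells/mL) received 10 μM compound for 30 min, and aliquots were heated for 3 min over 48°C-58°C, pooled, and extracted at 4°C in PBS with 0.5% NP-40. Soluble protein, the supernatant after 21,000xg for 90 min, was quantified by TMTpro 16plex LC-MS/MS with equalised channel sums.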

filanesib = compound: CON(C)C(=O)N1N=C(c2cc(F)ccc2F)S[C@@]1(CCCN)c1ccccc1 [filanesib]
How it was run: as §1

zotarolimus = compound: CO[C@H]1C[C@@H]2CC[C@@H](C)[C@@](O)(O2)C(=O)C(=O)N2CCCC[C@H]2C(=O)O[C@H]([C@H](C)C[C@@H]2CC[C@H](n3cnnn3)[C@H](OC)C2)CC(=O)[C@H](C)/C=C(\C)[C@@H](O)[C@@H](OC)C(=O)[C@H](C)C[C@H](C)/C=C/C=C/C=C/1C [zotarolimus]
How it was run: as §1

idasanutlin = compound: COc1cc(C(=O)O)ccc1NC(=O)[C@@H]1N[C@@H](CC(C)(C)C)[C@](C#N)(c2ccc(Cl)cc2F)[C@H]1c1cccc(Cl)c1F [idasanutlin]
How it was run: as §1

alisertib = compound: COc1cc(Nc2ncc3c(n2)-c2ccc(Cl)cc2C(c2c(F)cccc2OC)=NC3)ccc1C(=O)O [alisertib]
How it was run: as §1

[2] = compound: COc1cc2nc(-c3cc(F)ccc3O)nc(N[C@@H]3CNC[C@H]3C(C)(C)O)c2cc1OC
How it was run: as §1

gefitinib = compound: COc1cc2ncnc(Nc3ccc(F)c(Cl)c3)c2cc1OCCCN1CCOCC1 [gefitinib]
How it was run: as §1

[3] = compound: COc1cccc2cc(-c3nc([C@H]4CC[C@H](C(=O)O)CC4)n4ncnc(N)c34)[nH]c12
How it was run: as §1

lapatinib = compound: CS(=O)(=O)CCNCc1ccc(-c2ccc3ncnc(Nc4ccc(OCc5cccc(F)c5)c(Cl)c4)c3c2)o1 [lapatinib]
How it was run: as §1

pictilisib = compound: CS(=O)(=O)N1CCN(Cc2cc3nc(-c4cccc5[nH]ncc45)nc(N4CCOCC4)c3s2)CC1 [pictilisib]
How it was run: as §1

Measured: log2 fold change

PPP6R2 isoform 5 (UniProt O75170)
inactive: [1] -0.066 | filanesib -0.009 | zotarolimus 0.022 | idasanutlin -0.055 | alisertib 0.016 | [2] -0.011 | gefitinib 0.009 | [3] 0.054 | lapatinib 0.018 | pictilisib -0.007

PRPS2 isoform 2 (UniProt P11908)
inactive: [1] -0.063 | filanesib -0.021 | zotarolimus -0.014 | idasanutlin -0.024 | alisertib -0.019 | [2] 0.044 | gefitinib -0.038 | [3] 0.038 | lapatinib -0.01 | pictilisib 0.021

PRKAG1 isoform 3 (UniProt P54619)
inactive: [1] -0.02 | filanesib -0.036 | zotarolimus 0 | idasanutlin -0.004 | alisertib 0.022 | [2] 0.008 | gefitinib 0.002 | [3] 0.049 | lapatinib -0.055 | pictilisib -0.037

PRCP (UniProt P42785)
inactive: [1] 0.009 | filanesib -0.038 | zotarolimus -0.007 | idasanutlin -0.055 | alisertib -0.013 | [2] -0.074 | gefitinib 0.029 | [3] 0.065 | lapatinib -0.014 | pictilisib 0.019

PRPF40A (UniProt O75400)
inactive: [1] 0.082 | filanesib 0.135 | zotarolimus 0.029 | idasanutlin 0.058 | alisertib 0.024 | [2] -0.091 | gefitinib 0.042 | [3] -0.045 | lapatinib 0.018 | pictilisib -0.027

PRKAR1A (UniProt P10644)
inactive: [1] 0.079 | filanesib 0.042 | zotarolimus 0.046 | idasanutlin -0.045 | alisertib -0.075 | [2] 0.131 | gefitinib 0.046 | [3] -0.132 | lapatinib 0 | pictilisib 0.206

PRKCD (UniProt Q05655)
inactive: [1] -0.019 | filanesib -0.004 | zotarolimus 0.032 | idasanutlin -0.017 | alisertib 0.037 | [2] -0.003 | gefitinib -0.002 | [3] 0.074 | lapatinib 0.02 | pictilisib 0.026

PRCC (UniProt Q92733)
inactive: [1] -0.03 | filanesib -0.037 | zotarolimus -0.005 | idasanutlin 0.046 | alisertib -0.037 | [2] 0 | gefitinib -0.006 | [3] 0.066 | lapatinib -0.024 | pictilisib -0.078

PPP1R8 (UniProt Q12972)
inactive: [1] 0.073 | filanesib -0.024 | zotarolimus 0.013 | idasanutlin 0.009 | alisertib -0.083 | [2] 0.001 | gefitinib 0.008 | [3] 0.058 | lapatinib 0.009 | pictilisib -0.012

PPM1H (UniProt Q9ULR3)
inactive: [1] -0.007 | filanesib 0 | zotarolimus -0.027 | idasanutlin -0.045 | alisertib -0.022 | [2] 0.039 | gefitinib 0.029 | [3] 0.075 | lapatinib 0.019 | pictilisib 0.049

PRDX3 (UniProt P30048)
inactive: [1] 0.067 | filanesib 0.021 | zotarolimus -0.026 | idasanutlin 0.028 | alisertib -0.094 | [2] 0.008 | gefitinib 0.003 | [3] 0.023 | lapatinib 0.022 | pictilisib 0.07

PRPF31 (UniProt Q8WWY3)
inactive: [1] 0.07 | filanesib 0.006 | zotarolimus -0.028 | idasanutlin -0.053 | alisertib 0.081 | [2] -0.393 | gefitinib 0.003 | [3] 0.024 | lapatinib 0.061 | pictilisib 0.139

PPP2R1A (UniProt P30153)
inactive: [1] -0.024 | filanesib -0.101 | zotarolimus 0.024 | idasanutlin -0.046 | alisertib -0.014 | [2] -0.025 | gefitinib 0.004 | [3] 0.008 | lapatinib -0.03 | pictilisib 0.055

PRMT3 (UniProt O60678)
inactive: [1] 0.026 | filanesib -0.099 | zotarolimus 0.008 | idasanutlin -0.017 | alisertib -0.005 | [2] 0.098 | gefitinib -0.122 | [3] -0.111 | lapatinib 0.013 | pictilisib 0.048

PRKD2 isoform 3 (UniProt Q9BZL6)
inactive: [1] -0.05 | filanesib -0.037 | zotarolimus -0.125 | idasanutlin 0.078 | alisertib -0.03 | [2] -0.042 | gefitinib -0.159 | [3] 0.033 | lapatinib -0.011 | pictilisib -0.17

PPP4R2 (UniProt Q9NY27)
inactive: [1] 0.039 | filanesib 0.013 | zotarolimus 0.022 | idasanutlin -0.065 | alisertib -0.011 | [2] -0.079 | gefitinib -0.004 | [3] 0.027 | lapatinib 0.089 | pictilisib -0.055

PRDX4 (UniProt Q13162)
inactive: [1] -0.109 | filanesib -0.066 | zotarolimus -0.026 | idasanutlin -0.037 | alisertib 0.027 | [2] -0.007 | gefitinib -0.014 | [3] 0.055 | lapatinib -0.077 | pictilisib 0.041

PPP3CA (UniProt Q08209)
inactive: [1] -0.059 | filanesib 0.051 | zotarolimus -0.031 | idasanutlin -0.063 | alisertib 0.006 | [2] -0.047 | gefitinib 0.042 | [3] -0.032 | lapatinib 0.051 | pictilisib 0.033

PPP2R2A isoform 2 (UniProt P63151)
inactive: [1] -0.048 | filanesib -0.049 | zotarolimus -0.057 | idasanutlin -0.014 | alisertib -0.045 | [2] 0.011 | gefitinib 0.001 | [3] 0.058 | lapatinib 0 | pictilisib 0.018

PREPL (UniProt Q4J6C6)
inactive: [1] -0.043 | filanesib -0.005 | zotarolimus -0.06 | idasanutlin -0.024 | alisertib -0.03 | [2] 0.034 | gefitinib 0.01 | [3] 0.072 | lapatinib 0.018 | pictilisib 0.062

PPP2R5A (UniProt Q15172)
inactive: [1] 0.034 | filanesib -0.135 | zotarolimus 0.002 | idasanutlin -0.206 | alisertib -0.064 | [2] 0.032 | gefitinib -0.043 | [3] 0.005 | lapatinib 0.047 | pictilisib -0.096

PRRC2C isoform 7 (UniProt Q9Y520)
inactive: [1] -0.065 | filanesib 0.226 | zotarolimus -0.028 | idasanutlin 0.108 | alisertib -0.08 | [2] -0.005 | gefitinib -0.007 | [3] -0.062 | lapatinib 0.058 | pictilisib -0.02

PPP1CA (UniProt P62136)
inactive: filanesib 0.012 | zotarolimus -0.032 | idasanutlin 0.016 | alisertib 0.024 | [2] 0.015 | gefitinib 0.032 | [3] 0.023 | lapatinib 0.001 | pictilisib 0.013
active: [1] 0.263

PPP3CB isoform 4 (UniProt P16298)
inactive: [1] -0.128 | filanesib 0.017 | zotarolimus -0.024 | idasanutlin -0.1 | alisertib -0.009 | [2] 0.068 | gefitinib -0.004 | [3] 0.047 | lapatinib -0.041 | pictilisib 0.015

PRKAG2 (UniProt Q9UGJ0)
inactive: [1] -0.054 | filanesib -0.108 | zotarolimus 0.024 | idasanutlin -0.045 | alisertib -0.101 | [2] -0.072 | gefitinib 0.022 | [3] 0.034 | lapatinib 0.081 | pictilisib -0.037

PPP2R5D (UniProt Q14738)
inactive: [1] 0.073 | filanesib -0.078 | zotarolimus 0.091 | idasanutlin -0.084 | alisertib 0.029 | [2] 0.008 | gefitinib -0.005 | [3] -0.005 | lapatinib 0.109 | pictilisib 0.005

PPM1G (UniProt O15355)
inactive: [1] -0.011 | filanesib 0.014 | zotarolimus 0.028 | idasanutlin 0.066 | alisertib 0.019 | [2] 0.081 | gefitinib 0.044 | [3] -0.089 | lapatinib -0.052 | pictilisib 0.093

PPP6R3 isoform 5 (UniProt Q5H9R7)
inactive: [1] -0.015 | filanesib -0.041 | zotarolimus 0.019 | idasanutlin -0.041 | alisertib -0.052 | [2] -0.001 | gefitinib 0 | [3] 0.04 | lapatinib 0.007 | pictilisib 0.03

Quoted at random: two entries already listed
PPM1G (UniProt O15355)
inactive: [1] -0.011 | filanesib 0.014 | zotarolimus 0.028 | idasanutlin 0.066 | alisertib 0.019 | [2] 0.081 | gefitinib 0.044 | [3] -0.089 | lapatinib -0.052 | pictilisib 0.093

PRPF31 (UniProt Q8WWY3)
inactive: [1] 0.07 | filanesib 0.006 | zotarolimus -0.028 | idasanutlin -0.053 | alisertib 0.081 | [2] -0.393 | gefitinib 0.003 | [3] 0.024 | lapatinib 0.061 | pictilisib 0.139

(list continues)

PROSER2 (UniProt Q86WR7)
inactive: [1] -0.067 | filanesib 0.076 | zotarolimus -0.092 | idasanutlin 0.029 | alisertib 0.005 | [2] 0.05 | gefitinib 0.007 | [3] 0.105 | lapatinib 0.019 | pictilisib 0.177
